Measured values taken from US12209144B2 (Novartis AG, priority 2018, dated 2025).

Assays:
[1] = general procedure: Fmoc solid-phase peptide synthesis; Fmoc-Gly-RAM TentaGel resin (0.22 mmol/g); Fmoc-NH TentaGel RAM resin (0.23 mmol/g); HATU/DIPEA; details: for cyclisation yield: cyclisation step
[2] = general procedure: Fmoc solid-phase peptide synthesis; Fmoc-Gly-RAM TentaGel Resin; HATU/DIPEA; details: whole synthesis, scale 0.25 mmol
[3] = general procedure: Fmoc solid-phase peptide synthesis; Fmoc-NH TentaGel RAM Resin; HATU/DIPEA; details: whole synthesis, scale 0.1 mmol
[4] = whole synthesis, scale 0.1 mmol

## 3-((3R,9S,12S,15S,18S,21S,24S,27S,30S,33S,36S,39S,44aS)-30-([1,1′-biphenyl]-4-ylmethyl)-15-(2-amino-2-oxoethyl)-9,24-dibenzyl-3-(ethylcarbamoyl)-18,21-bis((R)-1-hydroxyethyl)-12-isopropyl-26,27,32,33,35,39-hexamethyl-1,7,10,13,16,19,22,25,28,31,34,37,40-tridecaoxodotetracontahydro-6H-pyrrolo[2,1-f][1]thia[4,7,10,13,16,19,22,25,28,31,34,37,40]tridecaazacyclodotetracontin-36-yl)propanoic acid
[1]; [4]
  isolated mass: 36 mg
  isolated yield: 22%

## 3-((3R,9S,12S,15S,18S,21S,24S,27S,30S,33S,36S,39S,44aS)-30-([1,1′-biphenyl]-4-ylmethyl)-36-(2-amino-2-oxoethyl)-3-((2-amino-2-oxoethyl)carbamoyl)-9,27-dibenzyl-15-(carboxymethyl)-18,21-bis((R)-1-hydroxyethyl)-24,39-bis(hydroxymethyl)-12-isopropyl-26,32-dimethyl-1,7,10,13,16,19,22,25,28,31,34,37,40-tridecaoxodotetracontahydro-6H-pyrrolo[2,1-f][1]thia[4,7,10,13,16,19,22,25,28,31,34,37,40]tridecaazacyclodotetracontin-33-yl)propanoic acid
[2]
  crude mass: 266 mg

## (6S,8aS,14S,17S,20S,23S,26S,29S,31aS,37S,40S,46R,48aS)-23,40-dibenzyl-17-(4-chlorobenzyl)-26,29-bis((R)-1-hydroxyethyl)-37-isopropyl-6,14,15,20,21-pentamethyl-5,8,13,16,19,22,25,28,31,36,39,42,48-tridecaoxohexatetracontahydro-13H-tripyrrolo[1,2-e1:1′,2′-j:1″,2″-k1][1]thia[4,7,10,13,16,19,22,25,28,31,34,37,40]tridecaazacyclodo-tetracontine-46-carboxamide
[3]
  crude mass: 106 mg

## Ac*-F-V-D-T-T-S-(N-Me)F-B-(N-Me)E-N-S-P-C*-G-NH2
[1]
  cyclisation yield: 22%

## ClCH2C(O)-F-V-N-T-T-F-(N-Me)A-B-(N-Me)A-(N-Me)E-A-P-C-N(H)Et
[1]
  cyclisation yield: 76%

## ClCH2C(O)-F-V-P-T-T-F-(N-Me)A-(p-Cl)F-(N-Me)A-P-A-P-C-NH2
[1]
  cyclisation yield: 9%
